These results are taken from PubChem BioAssay AID198 (DTP/NCI, 2004).

Molecules are shown by their SMILES. The list does not hold the whole screen: it gathers some chemical classes. Not every dose and run of a compound is shown. T/C: endpoint of the treated group in % of that of the vehicle group. For survival time, the PubChem record calls one and a half times the control and up active, and a quarter to a half above the control has no call in these data; cut-offs in other NCI protocols can differ. Some T/C values are marked as having no survivor count here; that says nothing about deaths at the dose. Schedules are NCI's codes, read here as Q, the interval in days (D) or hours (H), X, the number of doses. Some entries were tested several times; the values are given in rising order.

This assay deals with B16 melanoma ip, C57BL/6 mice, median survival T/C. In words: NCI In Vivo Anticancer Drug Screen. Data for tumor model B16 Melanoma (intraperitoneal) in C57BL/6 mice. The following applies: T/C endpoint: median survival time, schedule: Q01DX009 (ip), vehicle: saline, higher T/C = longer survival. As for the experimental part:
The antitumor activity of compounds was measured in mice bearing transplantable tumors. Survival or tumor size were measured and the results are expressed as the measurement made in the treated group (T) divided by the measurement made in the vehicle treated control group (C). The tumor model used in this assay is B16 Melanoma (intraperitoneal) in C57BL/6 mice

As to `CN(CCCl)CCCl`, the T/C (dose: 0.13 mg/kg/injection) is 136 % of control [survivor count not shown]; the T/C (dose: 0.25 mg/kg/injection) is 156 [survivor count not shown] and 168 % of control [survivor count not shown]; the T/C (dose: 0.5 mg/kg/injection) is 173 [survivor count not shown] and 200 % of control [survivor count not shown]; the T/C (dose: 1.0 mg/kg/injection) is 126 % of control [survivor count not shown].
